Assay results reported in the supplement of paper PMC10849652.
Some of the results follow.

Chains of the proteins cited; added tags and fusions are not shown. Lines headed by an entry give the natural chain unless they say otherwise; changes in a name come on top.
UniProt P05556, whole entry, looked up: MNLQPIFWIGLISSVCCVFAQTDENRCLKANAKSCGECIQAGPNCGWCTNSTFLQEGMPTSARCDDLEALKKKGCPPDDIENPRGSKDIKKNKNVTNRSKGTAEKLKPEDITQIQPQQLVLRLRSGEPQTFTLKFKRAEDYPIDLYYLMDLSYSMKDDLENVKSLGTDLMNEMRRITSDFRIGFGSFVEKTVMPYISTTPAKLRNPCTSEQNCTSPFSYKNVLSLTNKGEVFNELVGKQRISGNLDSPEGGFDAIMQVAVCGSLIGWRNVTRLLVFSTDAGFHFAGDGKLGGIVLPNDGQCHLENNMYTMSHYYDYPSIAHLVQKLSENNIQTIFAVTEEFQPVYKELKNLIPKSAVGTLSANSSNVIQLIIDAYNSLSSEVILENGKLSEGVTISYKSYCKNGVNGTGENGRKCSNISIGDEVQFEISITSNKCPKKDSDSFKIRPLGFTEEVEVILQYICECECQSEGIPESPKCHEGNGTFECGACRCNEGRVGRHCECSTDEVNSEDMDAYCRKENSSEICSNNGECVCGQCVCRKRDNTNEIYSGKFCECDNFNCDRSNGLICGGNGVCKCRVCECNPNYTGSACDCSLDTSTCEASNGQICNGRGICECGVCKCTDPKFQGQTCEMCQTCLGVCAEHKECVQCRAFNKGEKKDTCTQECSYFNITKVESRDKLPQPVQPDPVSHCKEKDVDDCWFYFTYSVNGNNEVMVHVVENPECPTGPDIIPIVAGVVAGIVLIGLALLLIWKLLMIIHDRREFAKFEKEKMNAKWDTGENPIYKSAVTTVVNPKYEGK
UniProt Q9Y6Y0: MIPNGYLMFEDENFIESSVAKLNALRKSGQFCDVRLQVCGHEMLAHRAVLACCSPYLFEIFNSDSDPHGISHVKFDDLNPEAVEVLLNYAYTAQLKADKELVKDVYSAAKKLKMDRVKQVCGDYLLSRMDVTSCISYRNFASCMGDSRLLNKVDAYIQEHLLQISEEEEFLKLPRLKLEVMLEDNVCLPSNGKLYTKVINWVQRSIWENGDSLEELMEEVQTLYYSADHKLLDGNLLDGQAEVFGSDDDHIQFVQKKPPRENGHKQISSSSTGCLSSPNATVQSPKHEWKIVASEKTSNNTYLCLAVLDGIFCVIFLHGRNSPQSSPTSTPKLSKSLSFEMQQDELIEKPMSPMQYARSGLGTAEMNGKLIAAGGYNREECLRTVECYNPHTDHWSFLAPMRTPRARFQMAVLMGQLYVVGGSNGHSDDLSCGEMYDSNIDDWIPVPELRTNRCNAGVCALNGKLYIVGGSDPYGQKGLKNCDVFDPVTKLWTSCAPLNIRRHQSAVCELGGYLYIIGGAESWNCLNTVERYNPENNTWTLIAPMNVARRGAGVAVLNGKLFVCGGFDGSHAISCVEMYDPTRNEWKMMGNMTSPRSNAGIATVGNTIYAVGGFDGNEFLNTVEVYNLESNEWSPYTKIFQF
UniProt Q96CN7: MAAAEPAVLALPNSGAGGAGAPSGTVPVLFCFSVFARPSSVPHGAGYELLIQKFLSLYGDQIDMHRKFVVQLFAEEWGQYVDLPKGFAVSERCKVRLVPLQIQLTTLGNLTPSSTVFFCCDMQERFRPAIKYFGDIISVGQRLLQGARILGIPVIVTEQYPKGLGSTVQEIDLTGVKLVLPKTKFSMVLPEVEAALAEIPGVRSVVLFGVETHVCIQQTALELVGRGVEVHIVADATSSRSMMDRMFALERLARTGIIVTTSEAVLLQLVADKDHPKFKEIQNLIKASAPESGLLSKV
UniProt Q9NXV2: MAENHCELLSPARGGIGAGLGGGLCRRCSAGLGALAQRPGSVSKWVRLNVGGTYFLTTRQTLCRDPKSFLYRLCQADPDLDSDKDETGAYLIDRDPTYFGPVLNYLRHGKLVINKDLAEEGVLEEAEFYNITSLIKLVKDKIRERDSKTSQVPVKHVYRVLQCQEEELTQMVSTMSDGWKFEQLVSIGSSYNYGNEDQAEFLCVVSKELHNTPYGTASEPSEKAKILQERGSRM
UniProt Q13303: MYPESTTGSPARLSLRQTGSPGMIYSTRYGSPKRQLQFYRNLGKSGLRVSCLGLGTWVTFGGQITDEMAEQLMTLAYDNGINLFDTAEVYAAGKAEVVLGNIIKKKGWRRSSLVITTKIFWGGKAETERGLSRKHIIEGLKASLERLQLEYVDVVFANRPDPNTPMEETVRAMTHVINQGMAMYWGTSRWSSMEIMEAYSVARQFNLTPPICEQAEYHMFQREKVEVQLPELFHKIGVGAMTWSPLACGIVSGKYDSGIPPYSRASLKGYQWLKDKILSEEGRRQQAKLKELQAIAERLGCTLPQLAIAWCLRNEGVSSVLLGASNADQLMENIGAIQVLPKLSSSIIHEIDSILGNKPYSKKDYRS
UniProt Q13572: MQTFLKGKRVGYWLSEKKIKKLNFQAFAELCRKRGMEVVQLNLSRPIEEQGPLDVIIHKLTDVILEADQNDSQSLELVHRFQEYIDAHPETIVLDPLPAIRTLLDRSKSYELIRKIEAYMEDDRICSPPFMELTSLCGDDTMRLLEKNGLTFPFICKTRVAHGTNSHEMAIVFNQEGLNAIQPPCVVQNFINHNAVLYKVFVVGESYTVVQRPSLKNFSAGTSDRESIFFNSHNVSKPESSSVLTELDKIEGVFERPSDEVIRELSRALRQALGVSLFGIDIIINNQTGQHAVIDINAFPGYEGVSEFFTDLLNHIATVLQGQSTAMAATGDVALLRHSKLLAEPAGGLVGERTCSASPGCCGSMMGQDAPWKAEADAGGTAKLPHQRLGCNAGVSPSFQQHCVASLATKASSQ
UniProt Q8IU81: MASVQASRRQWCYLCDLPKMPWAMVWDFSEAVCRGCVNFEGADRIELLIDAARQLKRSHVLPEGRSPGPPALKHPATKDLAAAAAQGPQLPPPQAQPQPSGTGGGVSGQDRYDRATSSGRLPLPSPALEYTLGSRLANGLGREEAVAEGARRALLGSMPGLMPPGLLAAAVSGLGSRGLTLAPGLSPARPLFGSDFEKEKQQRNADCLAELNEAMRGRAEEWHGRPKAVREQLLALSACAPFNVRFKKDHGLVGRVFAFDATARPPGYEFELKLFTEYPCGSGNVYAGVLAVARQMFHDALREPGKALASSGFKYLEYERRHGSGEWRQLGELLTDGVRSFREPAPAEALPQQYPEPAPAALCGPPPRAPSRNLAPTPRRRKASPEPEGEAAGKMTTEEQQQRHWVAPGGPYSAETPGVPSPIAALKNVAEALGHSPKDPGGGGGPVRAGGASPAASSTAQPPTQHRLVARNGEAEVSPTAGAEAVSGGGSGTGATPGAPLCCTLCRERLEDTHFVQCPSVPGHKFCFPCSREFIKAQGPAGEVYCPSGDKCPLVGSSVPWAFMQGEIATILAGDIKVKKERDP
UniProt O76095: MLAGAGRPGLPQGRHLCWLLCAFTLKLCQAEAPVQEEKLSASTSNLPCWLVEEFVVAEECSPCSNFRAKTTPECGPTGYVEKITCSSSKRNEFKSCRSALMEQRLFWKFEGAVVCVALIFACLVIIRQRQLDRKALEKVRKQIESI
UniProt Q9H9V9: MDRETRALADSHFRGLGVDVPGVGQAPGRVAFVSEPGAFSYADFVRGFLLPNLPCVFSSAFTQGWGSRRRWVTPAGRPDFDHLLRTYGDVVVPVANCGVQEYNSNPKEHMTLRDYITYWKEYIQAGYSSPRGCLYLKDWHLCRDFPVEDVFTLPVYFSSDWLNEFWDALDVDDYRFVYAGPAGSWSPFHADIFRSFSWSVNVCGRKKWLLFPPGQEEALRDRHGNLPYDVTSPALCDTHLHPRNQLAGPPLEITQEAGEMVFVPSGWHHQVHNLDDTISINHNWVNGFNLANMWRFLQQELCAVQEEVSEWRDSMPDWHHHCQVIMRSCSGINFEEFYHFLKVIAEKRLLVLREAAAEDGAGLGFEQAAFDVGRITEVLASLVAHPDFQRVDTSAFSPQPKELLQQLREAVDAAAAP
UniProt Q9H3F6: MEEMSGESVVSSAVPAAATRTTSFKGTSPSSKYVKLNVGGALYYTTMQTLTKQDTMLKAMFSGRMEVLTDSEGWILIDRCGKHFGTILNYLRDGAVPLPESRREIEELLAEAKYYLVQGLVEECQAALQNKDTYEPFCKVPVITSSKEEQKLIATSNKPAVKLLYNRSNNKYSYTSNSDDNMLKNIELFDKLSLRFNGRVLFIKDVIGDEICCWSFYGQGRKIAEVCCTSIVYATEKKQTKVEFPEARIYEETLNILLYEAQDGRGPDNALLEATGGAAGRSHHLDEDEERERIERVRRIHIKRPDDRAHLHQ
UniProt Q9Y4H2: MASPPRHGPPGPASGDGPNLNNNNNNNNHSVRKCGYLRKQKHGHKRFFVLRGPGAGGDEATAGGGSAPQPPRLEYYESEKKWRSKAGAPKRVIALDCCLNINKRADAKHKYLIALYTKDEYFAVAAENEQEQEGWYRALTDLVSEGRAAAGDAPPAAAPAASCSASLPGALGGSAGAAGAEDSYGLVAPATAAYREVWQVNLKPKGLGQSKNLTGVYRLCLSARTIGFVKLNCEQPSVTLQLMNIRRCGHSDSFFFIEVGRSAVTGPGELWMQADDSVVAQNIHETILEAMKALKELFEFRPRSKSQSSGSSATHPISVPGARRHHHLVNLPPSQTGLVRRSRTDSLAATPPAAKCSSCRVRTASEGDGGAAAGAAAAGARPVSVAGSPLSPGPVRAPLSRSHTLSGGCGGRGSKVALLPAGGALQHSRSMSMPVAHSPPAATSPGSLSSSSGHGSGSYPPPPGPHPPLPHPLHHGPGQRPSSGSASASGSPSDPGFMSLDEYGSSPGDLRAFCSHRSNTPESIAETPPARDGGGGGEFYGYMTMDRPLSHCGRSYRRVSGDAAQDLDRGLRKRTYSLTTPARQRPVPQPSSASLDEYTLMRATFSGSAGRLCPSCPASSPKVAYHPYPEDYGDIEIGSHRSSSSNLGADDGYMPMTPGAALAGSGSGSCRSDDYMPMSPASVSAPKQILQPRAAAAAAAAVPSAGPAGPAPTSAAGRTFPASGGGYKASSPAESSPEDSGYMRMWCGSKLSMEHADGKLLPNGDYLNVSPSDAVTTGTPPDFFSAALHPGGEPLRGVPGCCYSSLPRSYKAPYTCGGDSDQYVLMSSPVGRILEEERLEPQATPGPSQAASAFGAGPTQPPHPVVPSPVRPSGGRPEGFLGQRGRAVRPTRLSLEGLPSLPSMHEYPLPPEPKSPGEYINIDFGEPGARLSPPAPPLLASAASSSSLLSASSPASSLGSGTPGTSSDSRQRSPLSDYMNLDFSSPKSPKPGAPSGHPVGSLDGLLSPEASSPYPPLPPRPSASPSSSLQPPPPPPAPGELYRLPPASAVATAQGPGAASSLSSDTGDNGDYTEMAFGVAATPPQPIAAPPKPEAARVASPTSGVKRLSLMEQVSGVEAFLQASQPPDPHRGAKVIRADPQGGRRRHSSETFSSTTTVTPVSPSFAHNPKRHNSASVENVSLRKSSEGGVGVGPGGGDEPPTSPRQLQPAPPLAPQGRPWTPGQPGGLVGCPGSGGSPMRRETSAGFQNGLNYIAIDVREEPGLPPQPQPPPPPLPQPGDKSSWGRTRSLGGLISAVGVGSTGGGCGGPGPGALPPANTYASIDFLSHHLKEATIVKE
UniProt Q6DN90: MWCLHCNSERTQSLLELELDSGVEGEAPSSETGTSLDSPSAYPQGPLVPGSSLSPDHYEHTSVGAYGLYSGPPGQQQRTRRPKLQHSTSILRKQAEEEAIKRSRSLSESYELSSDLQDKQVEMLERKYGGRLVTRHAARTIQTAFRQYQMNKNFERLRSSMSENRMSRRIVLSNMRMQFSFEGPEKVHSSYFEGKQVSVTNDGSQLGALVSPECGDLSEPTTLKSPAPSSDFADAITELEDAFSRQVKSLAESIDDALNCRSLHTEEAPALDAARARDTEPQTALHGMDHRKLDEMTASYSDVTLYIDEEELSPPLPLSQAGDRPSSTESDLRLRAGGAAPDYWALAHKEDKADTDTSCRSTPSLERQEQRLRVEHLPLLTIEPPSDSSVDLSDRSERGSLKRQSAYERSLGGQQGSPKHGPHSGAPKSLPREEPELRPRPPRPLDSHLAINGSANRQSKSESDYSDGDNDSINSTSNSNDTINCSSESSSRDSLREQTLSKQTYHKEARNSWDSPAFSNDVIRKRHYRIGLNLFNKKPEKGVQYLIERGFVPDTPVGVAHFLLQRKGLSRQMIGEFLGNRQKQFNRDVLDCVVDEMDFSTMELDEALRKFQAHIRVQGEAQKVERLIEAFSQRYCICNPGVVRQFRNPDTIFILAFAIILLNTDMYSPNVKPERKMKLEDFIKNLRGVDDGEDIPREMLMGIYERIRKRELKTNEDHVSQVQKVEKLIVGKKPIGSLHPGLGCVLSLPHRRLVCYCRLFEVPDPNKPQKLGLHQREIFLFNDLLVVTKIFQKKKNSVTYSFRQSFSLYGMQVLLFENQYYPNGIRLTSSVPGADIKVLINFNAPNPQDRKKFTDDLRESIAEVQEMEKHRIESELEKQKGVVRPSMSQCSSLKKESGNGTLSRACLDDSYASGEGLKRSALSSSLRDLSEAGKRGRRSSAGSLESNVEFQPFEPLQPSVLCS

Columns and labels:
Experiment in all cases: log2 fold change, soluble protein after heating vs DMSO (PISA); higher = thermal stabilisation; K562 lysate, 10 uM; active = over 0.2 and 3.5 SD of the protein, either way, in both replicates (recomputed)
[1] = compound: C=CC(=O)N1CCC[C@@H](n2nc(-c3ccc(Oc4ccccc4)cc3)c3c(N)ncnc32)C1 [ibrutinib]
Method in brief: (§1)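 Quantification was by TMTpro 16plex LC-MS/MS with equalised channel sums, applied to the supernatant after 21,000xg for 90 min. Samples were crude K562 extract at 1 mg/mL protein in PBS pH 7.4 with 1 mM MgCl2, treated with 10 μM compound for 30 min, heated for 3 min across 48°C-58°C, pooled and brought to 0.5% NP-40 at 4°C. Values are log-two fold changes in thermal stability relative to solvent controls, from duplicates.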

[2] = compound: CC(=O)c1cnc2ccc(-c3cc(Cl)c(O)c(Cl)c3)nc2c1N[C@H]1CC[C@H](CN(C)C)CC1
Method in brief: as §1

[3] = compound: CC(C)(C)Cn1c(N)nc2ccc(-c3[nH]c(C(C)(C)C)nc3-c3ccc(F)cc3)nc21 [ralimetinib]
Method in brief: as §1

[4] = compound: CC(C)(O)CC(=O)NCCn1ccc2ncnc(Nc3ccc(Oc4cccc(C(F)(F)F)c4)c(Cl)c3)c21
Method in brief: as §1

[5] = compound: CC(C)C1=C2N=C(C=C(N2N=C1)NCC3=CC=CC=C3)NCCCCCCN
Method in brief: as §1

[6] = compound: CC1=C(C(CC(=O)N1)C2=CC=C(C=C2)C(F)(F)F)C(=O)NC3=C(C=C4C(=C3)C=NN4)F
Method in brief: as §1

[7] = compound: CC1=C(C2=C(C=C1)C(=O)C3=CC=CC=C3N2CCCN)C
Method in brief: as §1

[8] = compound: CC1=C(C=C(C=C1)NC(=O)C2=CC(=CC=C2)C(C)(C)C#N)NC3=CC4=C(C=C3)N=CN(C4=O)C
Method in brief: as §1

[9] = compound: CC1=C(C=C(C=C1)NC(=O)C2=CC(=CC=C2)N(C)C)NC(=O)C3=CC=C(C=C3)O
Method in brief: as §1

[10] = compound: CC1=CC=C(C=C1)SC2=C3C=C(SC3=CN=C2)C(=O)N
Method in brief: as §1

Measured: log2 fold change

ITGB1 (UniProt P05556)
inactive: [1] 0.013 | [2] 0.013 | [3] -0.003 | [4] -0.012 | [5] -0.014 | [6] 0.007 | [7] 0.01 | [8] 0.003 | [9] 0.008 | [10] -0.011

INTS5 (UniProt Q6P9B9)
inactive: [1] 0.051 | [2] 0.056 | [3] 0.051 | [4] -0.038 | [5] -0.06 | [6] -0.013 | [7] 0.021 | [8] 0 | [9] 0.039 | [10] 0.003

IQGAP1 (UniProt P46940)
inactive: [1] -0.04 | [2] -0.002 | [3] 0.012 | [4] 0 | [5] -0.029 | [6] -0.015 | [7] 0.027 | [8] 0.004 | [9] 0.022 | [10] 0.012

KATNB1 (UniProt Q9BVA0)
inactive: [1] 0.024 | [2] 0.012 | [3] -0.012 | [4] 0.012 | [5] -0.001 | [6] 0.055 | [7] 0.006 | [8] 0.026 | [9] 0.003 | [10] 0.024

IVNS1ABP (UniProt Q9Y6Y0)
inactive: [1] -0.069 | [2] -0.002 | [3] 0.02 | [4] -0.062 | [5] 0.017 | [6] 0.104 | [7] -0.008 | [8] -0.033 | [9] 0.026 | [10] 0.001

ISOC1 (UniProt Q96CN7)
inactive: [1] 0.045 | [2] 0.01 | [3] -0.023 | [4] 0.042 | [5] 0.013 | [6] -0.023 | [7] -0.009 | [8] 0 | [9] -0.018 | [10] -0.013

ITCH (UniProt Q96J02)
inactive: [1] 0.018 | [2] -0.013 | [3] -0.011 | [4] -0.016 | [5] 0.011 | [6] 0.017 | [7] -0.013 | [8] -0.008 | [9] 0.023 | [10] -0.028

KCTD5 (UniProt Q9NXV2)
inactive: [1] -0.015 | [2] 0.04 | [3] 0.006 | [4] -0.046 | [5] 0.11 | [6] 0.064 | [7] 0.04 | [8] 0.041 | [9] -0.029 | [10] -0.035

INTS9 (UniProt Q9NV88)
inactive: [1] 0.053 | [2] -0.053 | [3] 0.035 | [4] -0.045 | [5] -0.004 | [6] 0.014 | [7] 0.002 | [8] 0.038 | [9] -0.026 | [10] -0.057

IRF2 (UniProt P14316)
inactive: [1] 0.01 | [2] 0.047 | [3] -0.037 | [4] -0.222 | [5] -0.011 | [6] 0.091 | [7] -0.042 | [8] 0.226 | [9] -0.047 | [10] -0.033

JUND (UniProt P17535)
inactive: [1] 0.024 | [2] -0.034 | [3] 0.039 | [4] -0.002 | [5] -0.032 | [6] 0.02 | [7] 0.025 | [8] 0.063 | [9] -0.009 | [10] -0.019

KCNAB2 (UniProt Q13303)
inactive: [1] 0.001 | [2] 0.027 | [3] 0.029 | [4] -0.018 | [5] 0.042 | [6] -0.017 | [7] -0.02 | [8] 0.002 | [9] 0.004 | [10] 0.036

INTS14 (UniProt Q96SY0)
inactive: [1] -0.006 | [2] -0.008 | [3] 0.023 | [4] -0.012 | [5] -0.048 | [6] -0.003 | [7] -0.029 | [8] -0.004 | [9] 0.006 | [10] -0.01

ITPK1 (UniProt Q13572)
inactive: [1] 0.017 | [2] -0.015 | [3] 0.052 | [4] -0.055 | [5] 0.011 | [6] 0.01 | [7] -0.07 | [8] 0.017 | [9] 0.085 | [10] 0.042

IST1 (UniProt P53990)
inactive: [1] -0.033 | [2] 0.034 | [3] -0.014 | [4] 0.001 | [5] -0.014 | [6] -0.044 | [7] 0.045 | [8] 0.003 | [9] -0.038 | [10] -0.014

IRF2BP1 (UniProt Q8IU81)
inactive: [1] 0.003 | [2] 0.027 | [3] 0.008 | [4] 0.02 | [5] 0.006 | [6] -0.016 | [7] -0.027 | [8] 0.02 | [9] -0.001 | [10] -0.038

JTB (UniProt O76095)
inactive: [1] 0.156 | [2] 0.122 | [3] -0.019 | [4] -0.078 | [5] -0.097 | [6] 0.07 | [7] -0.052 | [8] -0.063 | [9] -0.011 | [10] -0.174

JMJD4 (UniProt Q9H9V9)
inactive: [1] 0.011 | [2] 0.112 | [3] -0.023 | [4] 0.016 | [5] 0.055 | [6] 0.028 | [7] 0.201 | [8] -0.026 | [9] -0.196 | [10] 0.021

KCTD9 (UniProt Q7L273)
inactive: [1] 0.018 | [2] -0.023 | [3] -0.002 | [4] -0.066 | [5] -0.015 | [6] 0.003 | [7] 0.035 | [8] -0.075 | [9] 0.132 | [10] 0.004

KCTD10 (UniProt Q9H3F6)
inactive: [1] 0.013 | [2] 0.023 | [3] -0.02 | [4] -0.042 | [5] -0.077 | [6] -0.06 | [7] -0.096 | [8] -0.06 | [9] 0.011 | [10] 0.03

IRS2 (UniProt Q9Y4H2)
inactive: [1] -0.089 | [2] -0.209 | [3] 0.014 | [4] 0.047 | [5] 0.03 | [6] 0.049 | [7] -0.079 | [8] 0.118 | [9] -0.051 | [10] 0.254

ISYNA1 (UniProt Q9NPH2)
inactive: [1] 0.028 | [2] 0.015 | [3] 0.045 | [4] -0.056 | [5] 0.012 | [6] 0 | [7] -0.028 | [8] -0.011 | [9] 0 | [10] -0.011

ITSN1 isoform 8 (UniProt Q15811)
inactive: [1] -0.019 | [2] 0.015 | [3] -0.002 | [4] -0.019 | [5] 0.005 | [6] 0.02 | [7] -0.09 | [8] 0.007 | [9] -0.043 | [10] 0

KDM3B (UniProt Q7LBC6)
inactive: [1] 0.007 | [2] 0.01 | [3] 0.024 | [4] -0.033 | [5] 0.008 | [6] 0.022 | [7] 0.017 | [8] -0.009 | [9] 0.022 | [10] -0.03

IQSEC1 (UniProt Q6DN90)
inactive: [1] 0.001 | [2] 0.011 | [3] 0.002 | [4] 0.002 | [5] -0.005 | [6] 0.025 | [7] -0.008 | [8] 0.024 | [9] 0.063 | [10] 0.033

KDM1A (UniProt O60341)
inactive: [1] 0.007 | [2] -0.011 | [3] 0.018 | [4] -0.016 | [5] 0.019 | [6] -0.004 | [7] 0.003 | [8] -0.004 | [9] 0.044 | [10] 0.003

IRGQ (UniProt Q8WZA9)
inactive: [1] 0.049 | [2] 0.001 | [3] -0.008 | [4] -0.051 | [5] -0.032 | [6] -0.002 | [7] 0.006 | [8] 0.007 | [9] 0.013 | [10] -0.023

Random excerpt: two records from the list.
KCTD5 (UniProt Q9NXV2)
inactive: [1] -0.015 | [2] 0.04 | [3] 0.006 | [4] -0.046 | [5] 0.11 | [6] 0.064 | [7] 0.04 | [8] 0.041 | [9] -0.029 | [10] -0.035

KCNAB2 (UniProt Q13303)
inactive: [1] 0.001 | [2] 0.027 | [3] 0.029 | [4] -0.018 | [5] 0.042 | [6] -0.017 | [7] -0.02 | [8] 0.002 | [9] 0.004 | [10] 0.036

Following part

KBTBD8 (UniProt Q8NFY9)
inactive: [1] 0.006 | [2] -0.026 | [3] -0.06 | [4] -0.014 | [5] -0.025 | [6] 0.001 | [7] 0.014 | [8] 0.015 | [9] 0.007 | [10] 0.072

KATNAL1 (UniProt Q9BW62)
inactive: [1] 0.022 | [2] -0.073 | [3] 0.018 | [4] -0.084 | [5] -0.003 | [6] 0.066 | [7] -0.072 | [8] -0.13 | [9] 0.124 | [10] 0.003

IRAK1 (UniProt P51617)
inactive: [1] 0.032 | [2] 0.195 | [3] -0.024 | [4] -0.031 | [5] -0.018 | [6] -0.013 | [7] -0.028 | [8] -0.086 | [9] 0.062 | [10] 0
